According to doi:10.1101/2022.10.10.511565:
Results are given in words; binding and its absence hold for the method and conditions named. Binding seen in cells or lysates may run through a third protein. A result given as binding can be weak or reduced; the word gives no strength. Where a sequence is shown, tags or fusion partners need not be part of it.

Biological target: T1, Lon^TRAP-Twin-Strep-tag (Lon S674A active-site mutant) (C. crescentus) (UniProt B8GX12)
T1 sequence: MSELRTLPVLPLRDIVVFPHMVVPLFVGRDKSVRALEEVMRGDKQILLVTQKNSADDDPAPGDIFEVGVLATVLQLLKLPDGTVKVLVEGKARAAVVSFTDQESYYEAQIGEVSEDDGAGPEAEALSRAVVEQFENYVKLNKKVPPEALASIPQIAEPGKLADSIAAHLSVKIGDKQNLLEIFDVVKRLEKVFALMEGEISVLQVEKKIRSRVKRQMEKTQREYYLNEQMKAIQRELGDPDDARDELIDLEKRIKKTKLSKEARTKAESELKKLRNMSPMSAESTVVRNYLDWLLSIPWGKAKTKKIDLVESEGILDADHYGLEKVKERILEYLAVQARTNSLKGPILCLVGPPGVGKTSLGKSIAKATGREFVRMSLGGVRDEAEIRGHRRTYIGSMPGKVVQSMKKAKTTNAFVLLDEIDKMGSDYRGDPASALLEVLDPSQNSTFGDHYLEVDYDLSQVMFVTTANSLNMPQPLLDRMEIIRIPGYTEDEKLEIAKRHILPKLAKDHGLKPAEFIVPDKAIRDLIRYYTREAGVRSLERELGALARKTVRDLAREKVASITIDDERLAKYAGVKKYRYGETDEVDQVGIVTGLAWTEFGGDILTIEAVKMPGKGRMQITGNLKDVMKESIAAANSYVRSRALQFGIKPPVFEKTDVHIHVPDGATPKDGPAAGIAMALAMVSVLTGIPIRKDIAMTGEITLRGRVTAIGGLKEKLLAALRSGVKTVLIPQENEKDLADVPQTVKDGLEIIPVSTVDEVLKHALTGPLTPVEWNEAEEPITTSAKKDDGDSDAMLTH
Test: pull-down

- binding: binds
Substance: DnaA
